This experiment has as its target CD3 (TCR/CD3 complex) on the surface of human T cells and Jurkat (CD3+) cells (human, UniProt P07766 23-207; P09693 23-182; P04234 22-171). Briefly: cell-based or functional assay.

Chains of the proteins cited; added tags and fusions are not shown. Residues count along the entry.
UniProt P07766, 23-207, chain 1 of 3: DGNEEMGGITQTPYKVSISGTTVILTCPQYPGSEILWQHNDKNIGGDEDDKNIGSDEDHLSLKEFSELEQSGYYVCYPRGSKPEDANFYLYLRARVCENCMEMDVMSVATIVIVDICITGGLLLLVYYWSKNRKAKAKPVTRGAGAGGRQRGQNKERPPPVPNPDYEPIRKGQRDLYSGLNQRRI
CD3 (TCR/CD3 complex) on the surface of human T cells and Jurkat (CD3+) cells, UniProt P09693, 23-182, chain 2 of 3: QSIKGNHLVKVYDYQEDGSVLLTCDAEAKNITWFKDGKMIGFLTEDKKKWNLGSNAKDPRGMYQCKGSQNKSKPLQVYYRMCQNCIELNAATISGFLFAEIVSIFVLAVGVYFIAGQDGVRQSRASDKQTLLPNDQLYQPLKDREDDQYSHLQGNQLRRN
CD3 (TCR/CD3 complex) on the surface of human T cells and Jurkat (CD3+) cells, UniProt P04234, 22-171, chain 3 of 3: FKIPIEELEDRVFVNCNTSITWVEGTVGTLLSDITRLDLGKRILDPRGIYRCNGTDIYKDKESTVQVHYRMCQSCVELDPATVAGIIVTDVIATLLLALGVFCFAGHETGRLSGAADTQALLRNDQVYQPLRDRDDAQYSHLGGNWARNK

B1: Anti-CD3 (UCHT1) CAR (UCHT1 scFv - CD8α hinge and transmembrane - 4-1BB - CD3ζ) (other)
chain: DIQMTQTTSSLSASLGDRVTISCRASQDIRNYLNWYQQKPDGTVKLLIYYTSRLHSGVPSKFSGSGSGTDYSLTISNLEQEDIATYFCQQGNTLPWTFAGGTKLEIKGGGGSGGGGSGGGGSGGGGSEVQLQQSGPELVKPGASMKISCKASGYSFTGYTMNWVKQSHGKNLEWMGLINPYKGVSTYNQKFKDKATLTVDKSSSTAYMELLSLTSEDSAVYYCARSGYYGDSDWYFDVWGQGTTLTVFSKPTTTPAPRPPTPAPTIASQPLSLRPEACRPAAGGAVHTRGLDFACDIYIWAPLAGTCGVLLLSLVITLYCKRGRKKLLYIFKQPFMRPVQTTQEEDGCSCRFPEEEEGGCELRVKFSRSADAPAYQQGQNQLYNELNLGRREEYDVLDKRRGRDPEMGGKPRRKNPQEGLYNELQKDKMAEAYSEIGMKGERRRGKGHDGLYQGLSTATKDTYDALHMQALPPR
B1: the “% Cytotoxicity against Jurkat (CD3+) target cells, 24-hour assay, Effector:Target ratio 1:10, donor 1” value came out at 65%; the “% Cytotoxicity against Jurkat (CD3+) target cells, 24-hour assay, Effector:Target ratio 1:10, donor 2” value is 72%; the “% Cytotoxicity against Jurkat (CD3+) target cells, 24-hour assay, Effector:Target ratio 1:10, donor 3” value came out at 65%; the “% Cytotoxicity against Jurkat (CD3+) target cells, 24-hour assay, Effector:Target ratio 1:10, donor 4” value is 63%. In addition, the “% Cytotoxicity against Jurkat (CD3+) target cells, 24-hour assay, Effector:Target ratio 1:10, donor 5” value stood at 65% and the “% Cytotoxicity against Jurkat (CD3+) target cells, 24-hour assay, Effector:Target ratio 1:10, donor 6” value stood at 65%.

Source of the values: patent US20250325587A1 (MEDISIX THERAPEUTICS, published 2025).
